No constants are given. Whether binding was seen depends on the method and setting. Binding seen in cells or lysates may run through a third protein. Some binding calls cover weakened binding; strength is not graded here. Sequences can lack the tags named with a protein.
T1: Ydr071c (Saccharomyces cerevisiae) (UniProt Q12447)
T1 sequence (looked up): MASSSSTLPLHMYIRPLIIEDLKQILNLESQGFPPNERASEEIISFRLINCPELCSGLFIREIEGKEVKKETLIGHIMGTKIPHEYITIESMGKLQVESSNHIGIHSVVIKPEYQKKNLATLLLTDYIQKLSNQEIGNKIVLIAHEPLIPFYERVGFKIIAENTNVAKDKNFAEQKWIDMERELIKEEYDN

T2: Dun1 (Saccharomyces cerevisiae) (UniProt P39009)
T2 sequence (looked up): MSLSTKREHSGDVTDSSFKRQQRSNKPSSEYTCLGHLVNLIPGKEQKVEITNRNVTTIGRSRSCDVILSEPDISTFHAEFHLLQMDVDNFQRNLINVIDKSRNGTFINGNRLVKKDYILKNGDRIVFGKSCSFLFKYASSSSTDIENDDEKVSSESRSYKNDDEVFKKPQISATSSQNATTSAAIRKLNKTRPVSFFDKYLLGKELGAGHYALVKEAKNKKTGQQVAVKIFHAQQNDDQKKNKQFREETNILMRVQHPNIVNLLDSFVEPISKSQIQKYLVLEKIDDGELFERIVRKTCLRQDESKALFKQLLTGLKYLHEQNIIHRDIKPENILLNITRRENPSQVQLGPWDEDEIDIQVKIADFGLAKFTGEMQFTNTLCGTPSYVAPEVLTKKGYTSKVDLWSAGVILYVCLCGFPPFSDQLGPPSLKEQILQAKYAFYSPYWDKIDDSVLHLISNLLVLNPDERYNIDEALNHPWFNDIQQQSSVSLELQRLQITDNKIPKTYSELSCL

T3: Bcy1 (Saccharomyces cerevisiae) (UniProt P07278)
T3 sequence (looked up): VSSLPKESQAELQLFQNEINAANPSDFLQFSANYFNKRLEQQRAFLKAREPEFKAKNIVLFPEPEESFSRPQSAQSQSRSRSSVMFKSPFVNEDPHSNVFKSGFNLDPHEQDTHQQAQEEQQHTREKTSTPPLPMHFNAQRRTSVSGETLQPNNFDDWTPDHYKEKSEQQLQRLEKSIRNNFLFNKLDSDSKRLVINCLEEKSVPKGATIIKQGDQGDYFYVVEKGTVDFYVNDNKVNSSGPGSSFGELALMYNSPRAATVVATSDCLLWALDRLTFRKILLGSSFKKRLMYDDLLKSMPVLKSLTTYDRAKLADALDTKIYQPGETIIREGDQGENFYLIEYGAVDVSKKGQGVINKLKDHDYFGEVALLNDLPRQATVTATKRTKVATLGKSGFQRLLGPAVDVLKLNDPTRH

T4: Rad3 (Saccharomyces cerevisiae) (UniProt P06839)
T4 sequence (looked up): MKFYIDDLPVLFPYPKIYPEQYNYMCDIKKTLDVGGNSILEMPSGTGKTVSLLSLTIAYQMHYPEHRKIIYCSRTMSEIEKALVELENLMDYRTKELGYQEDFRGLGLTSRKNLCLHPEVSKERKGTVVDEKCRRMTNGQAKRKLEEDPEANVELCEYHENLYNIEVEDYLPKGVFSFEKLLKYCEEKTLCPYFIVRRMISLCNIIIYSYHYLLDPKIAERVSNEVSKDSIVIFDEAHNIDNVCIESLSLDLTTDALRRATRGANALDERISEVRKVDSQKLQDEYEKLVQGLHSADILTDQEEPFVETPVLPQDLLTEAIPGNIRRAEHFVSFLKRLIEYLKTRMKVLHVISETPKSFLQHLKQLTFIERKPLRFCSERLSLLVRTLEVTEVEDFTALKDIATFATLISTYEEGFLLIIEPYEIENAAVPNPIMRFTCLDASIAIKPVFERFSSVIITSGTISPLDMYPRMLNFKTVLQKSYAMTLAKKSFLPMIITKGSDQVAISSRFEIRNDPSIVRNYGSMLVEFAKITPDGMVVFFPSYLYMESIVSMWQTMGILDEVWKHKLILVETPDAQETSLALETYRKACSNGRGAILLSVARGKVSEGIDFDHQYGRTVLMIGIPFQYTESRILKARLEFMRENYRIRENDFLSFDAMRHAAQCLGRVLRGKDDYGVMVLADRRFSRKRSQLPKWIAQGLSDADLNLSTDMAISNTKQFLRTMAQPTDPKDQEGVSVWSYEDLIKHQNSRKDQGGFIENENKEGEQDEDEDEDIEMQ


Legend:
[1] = biological target: T1, Ydr071c (Saccharomyces cerevisiae); experiment: anti-FLAG co-IP, LC-MS/MS
[2] = biological target: T2, Dun1 (Saccharomyces cerevisiae); experiment: anti-FLAG co-IP, LC-MS/MS
[3] = biological target: T2, Dun1 (Saccharomyces cerevisiae); experiment: anti-FLAG co-IP, LC-MS/MS; Dun1 was the prey by Table 2
[4] = biological target: T3, Bcy1 (Saccharomyces cerevisiae); experiment: anti-FLAG co-IP, LC-MS/MS
[5] = biological target: T4, Rad3 (Saccharomyces cerevisiae); experiment: anti-FLAG co-IP, LC-MS/MS

Binder | binding [1] | binding [2] | binding [3] | binding [5] | other results
Ptc3 (protein, Saccharomyces cerevisiae, UniProt P34221 1-468, looked up) MGQILSNPIIDKEHHSGTDCLTAFGLCAMQGWRMSMEDAHIVEPNLLAESDEEHLAFYGIFDGHGGSSVAEFCGSKMISILKKQESFKSGMLEQCLIDTFLATDVELLKDEKLKDDHSGCTATVILVSQLKKLLICANSGDSRTVLSTGGNSKAMSFDHKPTLLSEKSRIVAADGFVEMDRVNGNLALSRAIGDFEFKSNTKLGPHEQVVTCVPDIICHNLNYDEDEFVILACDGIWDCLTSQECVDLVHYGISQGNMTLSDISSRIVDVCCSPTTEGSGIGCDNMSISIVALLKENESESQWFERMRSKNYNIQTSFVQRRKSIFDFHDFSDDDNEVFAITTKKLQDRLNRSKDNDDMEIDDLDTELGSSATPSKLSGEDRTGPIDLFSLEALLEAGIQIRQRPSSDSDGNTSYFHGASLSDMLASLSNAAAGETEPNDADDNDDNDGEENGKNENAKKGSKIEEIE | binds | – | – | – | –
Ptc4 (protein, Saccharomyces cerevisiae, UniProt P38089 1-393, looked up) MGQLLSHPLTEKTIEYNEYKNNQASTGIVPRFYNCVGSMQGYRLTQEDAHLIRNENSVVYVRFFNPFIDKYETLSLNVFAVFDGHGGDDCSKFLSGGRHHRDGNGSSNGNGEPNAGLIKWIAYSFENHHYTSTTNNDSSKFKRSFNTLEGLVSQIFKDAFILQDEELYRHFANSSCGSTAVVACIINEESLYVANCGDSRCILSSKSNGIKTMSFDHKPQHIGELIRINDNGGTVSLGRVGGVLALSRAFSDFQFKRGVTYPHRRTKLTNITQNLTYGTPPQEAQVTVEPDVLMHKIDYSKDEFLVLACDGIWDIYNNKQLIHFIKYHLVSGTKLDTIITKLLDHGIAQANSNTGVGFDNMTAIIVVLNRKGETLQDWFNKMKTRLERERGLV | binds | – | – | – | –
Rad9 (protein, Saccharomyces cerevisiae, UniProt P14737 1-1309, looked up) MSGQLVQWKSSPDRVTQSAIKEALHSPLADGDMNEMNVPVDPLENKVNSTNIIEGSPKANPNPVKFMNTSEIFQKSLGLLDESPRHDDELNIEVGDNDRPNANILHNERTPDLDRIANFFKSNRTPGKENLLTKYQSSDLEDTPLMLRKKMTFQTPTDPLEQKTFKKLKSDTGFCYYGEQNDGEENASLEVTEADATFVQMAERSADNYDCALEGIVTPKRYKDELSKSGGMQDERVQKTQIMISAESPNSISSYDKNKITGNGRTTRNVNKVFNNNEDNIGAIEEKNPVKKKSENYSSDDLRERNNQIIQSNESEEINELEKNLNVSGRENDVNNLDIDINSAVSGTPSRNNAEEEMYSSESVNNREPSKKWIFRYSKDKTENNSNRSTQIVNNPRTQEMPLDSISIDTQPLSKSFNTETNNELETQIIVSSLSQGISAQKGPVFHSTGQTEEIKTQIINSPEQNALNATFETPVTLSRINFEPILEVPETSSPSKNTMSKPSNSSPIPKEKDTFNIHEREVETNNVFSNDIQNSSNAATRDDIIIAGSSDFNEQKEITDRIYLQLSGKQISDSGSDETERMSPNELDTKKESTIMSEVELTQELPEVEEQQDLQTSPKKLVVEEETLMEIKKSKGNSLQLHDDNKECNSDKQDGTESLDVALIEHESKGQSSELQKNLMQLFPSESQEIIQNRRTIKRRQKDTIEIGEEEENRSTKTSPTKHLKRNSDLDAASIKREPSCSITIQTGETGSGKDSKEQSYVFPEGIRTADNSFLSKDDIIFGNAVWCQYTWNYKFYPGILLEVDTNQDGCWIYFETGRSLTKDEDIYYLDIRIGDAVTFDGNEYVVVGLECRSHDLNIIRCIRGYDTVHLKKKNASGLLGKRTLIKALSSISLDLSEWAKRAKIILEDNEKNKGDAYRYLRHPIRGRKSMTNVLSPKKHTDDEKDINTHTEVYNNEIESSSEKKEIVKKDSRDALAEHAGAPSLLFSSGEIRTGNVFDKCIFVLTSLFENREELRQTIESQGGTVIESGFSTLFNFTHPLAKSLVNKGNTDNIRELALKLAWKPHSLFADCRFACLITKRHLRSLKYLETLALGWPTLHWKFISACIEKKRIVPHLIYQYLLPSGESFRLSLDSPSKGGIIKSNNIFSFYTQFLRGSNLRDQICGVKKMLNDYIVIVWGRSELDSFVKFAFACLSAGRMLTIDLPNIDVDDTEPLLNALDSLVPRIGSELSNRKLKFLIYANENNGKSQMKLLERLRSQISLKFKKFNYIFHTESKEWLIQTIINEDTGFHDDITDNDIYNTISEVR | – | binds | binds | – | –
Sml1 (protein, Saccharomyces cerevisiae, UniProt Q04964 1-104, looked up) MQNSQDYFYAQNRCQQQQAPSTLRTVTMAEFRRVPLPPMAEVPMLSTQNSMGSSASASASSLEMWEKDLEERLNSIDHDMNNNKFGSGELKSMFNQGKVEEMDF | – | binds | binds | – | –
Met18/Mms19 (protein, Saccharomyces cerevisiae, UniProt P40469 1-1032, looked up) MTPDELNSAVVTFMANLNIDDSKANETASTVTDSIVHRSIKLLEVVVALKDYFLSENEVERKKALTCLTTILAKTPKDHLSKNECSVIFQFYQSKLDDQALAKEVLEGFAALAPMKYVSINEIAQLLRLLLDNYQQGQHLASTRLWPFKILRKIFDRFFVNGSSTEQVKRINDLFIETFLHVANGEKDPRNLLLSFALNKSITSSLQNVENFKEDLFDVLFCYFPITFKPPKHDPYKISNQDLKTALRSAITATPLFAEDAYSNLLDKLTASSPVVKNDTLLTLLECVRKFGGSSILENWTLLWNALKFEIMQNSEGNENTLLNPYNKDQQSDDVGQYTNYDACLKIINLMALQLYNFDKVSFEKFFTHVLDELKPNFKYEKDLKQTCQILSAIGSGNVEIFNKVISSTFPLFLINTSEVAKLKLLIMNFSFFVDSYIDLFGRTSKESLGTPVPNNKMAEYKDEIIMILSMALTRSSKAEVTIRTLSVIQFTKMIKMKGFLTPEEVSLIIQYFTEEILTDNNKNIYYACLEGLKTISEIYEDLVFEISLKKLLDLLPDCFEEKIRVNDEENIHIETILKIILDFTTSRHILVKESITFLATKLNRVAKISKSREYCFLLISTIYSLFNNNNQNENVLNEEDALALKNAIEPKLFEIITQESAIVSDNYNLTLLSNVLFFTNLKIPQAAHQEELDRYNELFISEGKIRILDTPNVLAISYAKILSALNKNCQFPQKFTVLFGTVQLLKKHAPRMTETEKLGYLELLLVLSNKFVSEKDVIGLFDWKDLSVINLEVMVWLTKGLIMQNSLESSEIAKKFIDLLSNEEIGSLVSKLFEVFVMDISSLKKFKGISWNNNVKILYKQKFFGDIFQTLVSNYKNTVDMTIKCNYLTALSLVLKHTPSQSVGPFINDLFPLLLQALDMPDPEVRVSALETLKDTTDKHHTLITEHVSTIVPLLLSLSLPHKYNSVSVRLIALQLLEMITTVVPLNYCLSYQDDVLSALIPVLSDKKRIIRKQCVDTRQVYYELGQIPFE | – | – | – | binds | binding [4]: binds
TFB3 (protein, Saccharomyces cerevisiae, UniProt Q03290 1-321, looked up) MLMDEYEENKDMCPICKTDRYLSPDVKFLVNPECYHRICESCVDRIFSLGPAQCPYKGCDKILRKNKFKTQIFDDVEVEKEVDIRKRVFNVFNKTIDDFNGDLVEYNKYLEEVEDIIYKLDHGIDVAKTEEKLRTYEELNKQLIMNNLERSRTEIESFEQRQKFEKEMKLKKRLLERQIEEEERMNKEWTKKEIVNRLSTTTQDINETIEGVKNTVKLKKSSARRKLEELNRVLKNNPYFNSNVNVQNSRLKDAVPFTPFNGDREAHPRFTLKGSVYNDPFIKDLEHRKEFIASGFNTNYAYERVLTEAFMGLGCVISEEL | – | – | – | binds | –

Reference: US20030162221A1
